# Publication PMC5996148
# Some of the results follow.
# What was measured:
# Test in all cases: protein microarray (ProtoArray v5.0), streptavidin-Alexa Fluor 647
# Settings in all cases: 3'-biotin; 20 mM Tris (pH 7.5), 5 mM MgCl2, 100 mM KCl, 0.1% Tween-20, A/T-rich and random oligonucleotide blockers; temperature not stated; high values mean tight binding
# [1] = tested on: MOGAT3 (human)
# [2] = tested on: MORF4 family-associated protein 1-like 1 (human)
# [3] = tested on: MORN2 (human)
# [4] = tested on: MPHOSPH6 (human)
# [5] = tested on: MPI (human)
# [6] = tested on: MPP3 (human)
# [7] = tested on: MPPED2 (human)
# [8] = tested on: MPZL2 (human)
# [9] = tested on: MR1 (human)
# [10] = tested on: MRAP (human)
sequence,measurement,setting,value
GGGAGGCTGAGGCAGG [G4-1 biotinylated (PQS2)],binding signal,[1],-0.361 z-score
same,binding signal,[2],-0.333 z-score
same,binding signal,[3],-0.291 z-score
same,binding signal,[4],-0.324 z-score
same,binding signal,[5],-0.358 z-score
same,binding signal,[6],-0.346 z-score
same,binding signal,[7],-0.297 z-score
same,binding signal,[8],-0.279 z-score
same,binding signal,[9],-0.329 z-score
same,binding signal,[10],-0.325 z-score

# Looked up one by one from above, 2 records:
sequence,measurement,setting,value
GGGAGGCTGAGGCAGG [G4-1 biotinylated (PQS2)],binding signal,[1],-0.361 z-score
same,binding signal,[5],-0.358 z-score
